Laboratory results from patent publication US20110178107A1, “HCV PROTEASE INHIBITORS” (TaiGen Biotechnology Co., Ltd., priority 2010, published 2011).
Some entries share one result that the patent states for a list of compounds.

Molecular target: T1, NS3/4A protease (Hepatitis C virus genotype 1a, UniProt P27958)
T1 construct: N-terminal His6-tagged-NS4A(21-32)-GSGS-NS3(3-181); made in house; host or cells: E. coli BL21(DE3) pLysS
Experiment: Inhibition of NS3/4A protease activity (HPLC microbore assay)
Assay type: biochemical, HCV
Details: 2 nM NS3/4A protease, 30 minutes at 30° C; call rule not given here.

Structure (SMILES) | inhibiting NS3/4A activity
C=C[C@@H]1C[C@]1(NC(=O)[C@@H]1C[C@@H](Oc2nc(-c3ccc(Cl)s3)nc3c2oc2ccccc23)CN1C(=O)[C@@H](Nc1nc(C(=O)OC)cs1)C(C)(C)C)C(=O)NS(=O)(=O)C1CC1 [Compound 183] | active
C=C[C@@H]1C[C@]1(NC(=O)[C@@H]1C[C@@H](Oc2nc(-c3ccc(OC(C)C)cc3)nc3c2oc2ccc(F)cc23)CN1C(=O)[C@@H](Nc1nc(C)cs1)C(C)(C)C)C(=O)NS(=O)(=O)C1CC1 [Compound 147] | active
C=C[C@@H]1C[C@]1(NC(=O)[C@@H]1C[C@@H](Oc2nc(-c3ccc(C(F)(F)F)cc3)nc3c2sc2ccccc23)CN1C(=O)[C@@H](Nc1ccc(F)cc1)C(C)(C)C)C(=O)NS(=O)(=O)C1CC1 [Compound 112] | active
O=C1N[C@]2(C(=O)NS(=O)(=O)C3CC3)C[C@H]2/C=C\CCCCCCC(=O)N2C[C@H](Oc3cc(C4CC4)nc4c5ccccc5nn34)C[C@@H]12 [Compound 302] | active
O=C(N[C@H]1CCCCC/C=C\[C@@H]2C[C@@]2(C(=O)NS(=O)(=O)C2CC2)NC(=O)[C@@H]2C[C@@H](Oc3cc(-c4ccccc4)nc4c5c(C(F)(F)F)cccc5nn34)CN2C1=O)OC1CCCC1 [Compound 251] | active
C=C[C@@H]1C[C@]1(NC(=O)[C@@H]1C[C@@H](Oc2nc(-c3ccc(C(F)(F)F)cc3)nc3c2oc2ccccc23)CN1C(=O)[C@@H](Nc1nc(C(=O)NCC)cs1)C(C)(C)C)C(=O)NS(=O)(=O)C1CC1 [Compound 62] | active
C=C[C@@H]1C[C@]1(NC(=O)[C@@H]1C[C@@H](Oc2nc(-c3ccc(OC(C)C)cc3)nc3c2oc2ccccc23)CN1C(=O)[C@@H](Nc1nc2c(s1)CCC2)C(C)(C)C)C(=O)NS(=O)(=O)C1CC1 [Compound 134] | active
C=C[C@@H]1C[C@]1(NC(=O)[C@@H]1C[C@@H](Oc2nc(-c3ccc(C(F)(F)F)cc3)nc3c2sc2ccccc23)CN1C(=O)[C@@H](Nc1cccc(F)c1)C(C)(C)C)C(=O)NS(=O)(=O)C1CC1 [Compound 113] | active
COc1cccc2c1nn1c(O[C@@H]3C[C@H]4C(=O)N[C@]5(C(=O)NS(=O)(=O)C6CC6)C[C@H]5/C=C\CCCCC[C@H](NC(=O)OC5CCCC5)C(=O)N4C3)cc(-c3ccccc3)nc21 [Compound 252] | active
C=C[C@@H]1C[C@]1(NC(=O)[C@@H]1C[C@@H](Oc2nc(-c3ccc(C(F)(F)F)cc3)nc3c2oc2ccccc23)CN1C(=O)[C@H](CC(C)C)Nc1nccc(Cl)n1)C(=O)NS(=O)(=O)C1CC1 [Compound 14] | active
CC(C)NC(=O)c1cccc(N[C@H]2CCCCC/C=C\[C@@H]3C[C@@]3(C(=O)NS(=O)(=O)C3CC3)NC(=O)[C@@H]3C[C@@H](Oc4nc(-c5ccc(C(F)(F)F)cc5)nc5c4oc4ccccc45)CN3C2=O)c1 [Compound 204] | active
COc1ccc(-c2cc(O[C@@H]3C[C@H]4C(=O)N[C@]5(C(=O)NS(=O)(=O)C6CC6)C[C@H]5/C=C\CCCCC[C@H](NC(=O)OC5CCCC5)C(=O)N4C3)n3nc4c(OC)cccc4c3n2)cc1 [Compound 260] | active
CC[C@@H]1C[C@]1(NC(=O)[C@@H]1C[C@@H](Oc2nc(-c3ccc(C(F)(F)F)cc3)nc3c2oc2ccccc23)CN1C(=O)[C@@H](Nc1nc(C(C)(C)C)cs1)C(C)C)C(=O)NS(=O)(=O)C1CC1 [Compound 8] | active
CC[C@@H]1C[C@]1(NC(=O)[C@@H]1C[C@@H](Oc2nc(-c3ccc(C(F)(F)F)cc3)nc3c2oc2ccccc23)CN1C(=O)[C@@H](Nc1cccc(F)c1)C(C)(C)C)C(=O)NS(=O)(=O)C1CC1 [Compound 36] | active
C=C[C@@H]1C[C@]1(NC(=O)[C@@H]1C[C@@H](Oc2nc(-c3ccc(C(F)(F)F)cc3)nc3c2oc2cccnc23)CN1C(=O)[C@@H](Nc1nccc(Cl)n1)C(C)C)C(=O)NS(=O)(=O)C1CC1 [Compound 1] | active
COc1ccc(-c2cc(O[C@@H]3C[C@H]4C(=O)N[C@]5(C(=O)NS(=O)(=O)C6CC6)C[C@H]5/C=C\CCCCC[C@H](NC(=O)OC(C)(C)C)C(=O)N4C3)n3nc4ccccc4c3n2)cc1 [Compound 291] | active
CC(C)Oc1ccc(-c2nc(O[C@@H]3C[C@H]4C(=O)N[C@]5(C(=O)NS(=O)(=O)C6CC6)C[C@H]5/C=C\CCCCC[C@H](Nc5ccccc5)C(=O)N4C3)c3oc4ccc(F)cc4c3n2)cc1 [Compound 221] | active
C=C[C@@H]1C[C@]1(NC(=O)[C@@H]1C[C@@H](Oc2nc(-c3ccc(OC(C)C)cc3)nc3c2oc2ccccc23)CN1C(=O)[C@@H](Nc1ccccc1)C(C)(C)C)C(=O)NS(=O)(=O)C1CC1 [Compound 125] | active

Structure (SMILES) | inhibiting NS3/4A activity
C=C[C@@H]1C[C@]1(NC(=O)[C@@H]1C[C@@H](Oc2nc(-c3ccc(C(F)(F)F)cc3)nc3c2oc2ccccc23)CN1C(=O)[C@H](CC1CCCCC1)Nc1nc(C)cs1)C(=O)NS(=O)(=O)C1CC1 [Compound 35] | active
O=C(N[C@H]1CCCCC/C=C\[C@@H]2C[C@@]2(C(=O)NS(=O)(=O)C2CC2)NC(=O)[C@@H]2C[C@@H](Oc3cc(-c4ccccc4OC(F)(F)F)nc4c5ccccc5nn34)CN2C1=O)OC1CCCC1 [Compound 233] | active
C=C[C@@H]1C[C@]1(NC(=O)[C@@H]1C[C@@H](Oc2nc(-c3ccc(OC(C)C)cc3)nc3c2oc2cccnc23)CN1C(=O)[C@@H](Nc1ccc(C#N)cc1)C(C)(C)C)C(=O)NS(=O)(=O)C1CC1 [Compound 172] | active
C=C[C@@H]1C[C@]1(NC(=O)[C@@H]1C[C@@H](Oc2nc(-c3ccc(OC(C)C)cc3)nc3c2sc2ccccc23)CN1C(=O)[C@@H](Nc1nc(C(=O)OCC)cs1)C(C)(C)C)C(=O)NS(=O)(=O)C1CC1 [Compound 130] | active
C=C[C@@H]1C[C@]1(NC(=O)[C@@H]1C[C@@H](Oc2nc(-c3ccc(OC(C)C)cc3)nc3c2sc2ccc(F)cc23)CN1C(=O)[C@@H](Nc1nc2c(s1)CCC2)C(C)(C)C)C(=O)NS(=O)(=O)C1CC1 [Compound 155] | active
O=C(NC1CCCCCC=CC2CC2(C(=O)NS(=O)(=O)C2CC2)NC(=O)C2CC(Oc3cc(-c4ccccc4)nc4nc5ccccc5n34)CN2C1=O)OC1CCCC1 (stereo not drawn) [Compound 304, [4-Cyclopropanesulfonylaminocarbonyl-2,15-dioxo-18-(2-phenyl-benzo[4,5]imidazo[1,2-a]pyrimidin-4-yloxy)-3,16-diazatricyclo[14.3.0.04,6]nonadec-7-en-14-yl]-carbamic acid cyclopentyl ester] | active
O=C(N[C@H]1CCCCC/C=C\[C@@H]2C[C@@]2(C(=O)NS(=O)(=O)C2CC2)NC(=O)[C@@H]2C[C@@H](Oc3cc(C(F)(F)F)nc4c5ccccc5nn34)CN2C1=O)OC1CCCC1 [Compound 283] | active
C=C[C@@H]1C[C@]1(NC(=O)[C@@H]1C[C@@H](Oc2nc(-c3ccc(C(F)(F)F)cc3)nc3c2oc2ccccc23)CN1C(=O)[C@@H](Nc1cccc(C(=O)NC2CC2)c1)C(C)(C)C)C(=O)NS(=O)(=O)C1CC1 [Compound 84] | active
C=C[C@@H]1C[C@]1(NC(=O)[C@@H]1C[C@@H](Oc2nc(-c3ccc(C(F)(F)F)cc3)nc3c2oc2ccccc23)CN1C(=O)[C@@H](Nc1nc(CC)cs1)C(C)(C)C)C(=O)NS(=O)(=O)C1CC1 [Compound 17] | active
C=C[C@@H]1C[C@]1(NC(=O)[C@@H]1C[C@@H](Oc2nc(-c3ccc(OC(C)C)cc3)nc3c2oc2ccccc23)CN1C(=O)[C@@H](Nc1nc(C)cs1)C(C)(C)C)C(=O)NS(=O)(=O)C1CC1 [Compound 101, (2S,4R)—N-((1R,2S)-1-(cyclopropylsulfonylcarbamoyl-)-2-vinylcyclopropyl)-1-((S)-3,3-dimethyl-2-(4-methylthiazol-2-ylamino)butanoyl)-4-(2-(4-isopropoxyphenyl)benzofuro[3,2-d]pyrimidin-4-yloxy)pyrrolidine-2-carboxamide] | active
C=CCCCCC[C@H](Nc1cncnc1)C(=O)N1C[C@H](Oc2nc(-c3ccc(C(F)(F)F)cc3)nc3c2oc2ccccc23)C[C@H]1C(=O)N[C@]1(C(=O)NS(=O)(=O)C2CC2)C[C@H]1C=C [Compound 61] | active
C=C[C@@H]1C[C@]1(NC(=O)[C@@H]1C[C@@H](Oc2nc(-c3ccc(C(F)(F)F)cc3)nc3c2oc2ccccc23)CN1C(=O)[C@@H](Nc1nc(C)c(C(=O)N(C)C)s1)C(C)(C)C)C(=O)NS(=O)(=O)C1CC1 [Compound 92] | active
O=C(N[C@H]1CCCCC/C=C\[C@@H]2C[C@@]2(C(=O)NS(=O)(=O)C2CC2)NC(=O)[C@@H]2C[C@@H](Oc3cc(C4CC4)nc4c5ccccc5nn34)CN2C1=O)OC1CCCC1 [Compound 281] | active
CC(C)NC(=O)c1ccc(N[C@H]2CCCCC/C=C\[C@@H]3C[C@@]3(C(=O)NS(=O)(=O)C3CC3)NC(=O)[C@@H]3C[C@@H](Oc4nc(-c5ccc(C(F)(F)F)cc5)nc5c4oc4ccccc45)CN3C2=O)cc1 [Compound 207] | active
O=C(NC1CC1)c1csc(N[C@H]2CCCCC/C=C\[C@@H]3C[C@@]3(C(=O)NS(=O)(=O)C3CC3)NC(=O)[C@@H]3C[C@@H](Oc4nc(-c5ccc(C(F)(F)F)cc5)nc5c4oc4ccccc45)CN3C2=O)n1 [Compound 195] | active
COc1ccc2c(c1)nn1c(O[C@@H]3C[C@H]4C(=O)N[C@]5(C(=O)NS(=O)(=O)C6CC6)C[C@H]5/C=C\CCCCC[C@H](NC(=O)OC5CCCC5)C(=O)N4C3)cc(-c3ccc(OC(C)C)cc3)nc21 [Compound 265] | active
O=C(N[C@H]1CCCCC/C=C\[C@@H]2C[C@@]2(C(=O)NS(=O)(=O)C2CC2)NC(=O)[C@@H]2C[C@@H](Oc3cc(-c4ccoc4)nc4c5ccccc5nn34)CN2C1=O)OC1CCCC1 [Compound 276] | active
C=C[C@@H]1C[C@]1(NC(=O)[C@@H]1C[C@@H](Oc2nc(-c3ccc(OC(C)C)cc3)nc3c2oc2ccccc23)CN1C(=O)[C@@H](Nc1cccc(C(F)(F)F)c1)C(C)(C)C)C(=O)NS(=O)(=O)C1CC1 [Compound 122] | active
